Listed are the inconclusive results; actives and inactives stand elsewhere. Rule for the calls: active = hit-call score of the fitted dose curve at least 0.9, where 1 is the maximum; inconclusive = response in the unintended direction; inactive = score below 0.9.
What was measured:
[1] = target: Nuclear receptor subfamily 1 group I member 3 (Homo sapiens) (UniProt Q14994); experiment: ATG_CAR_TRANS: Attagene TRANS-FACTORIAL HepG2 Assay for human Constitutive Androstane Receptor (CAR) (AID 2282969); details: HepG2 Attagene TRANS-FACTORIAL CAR reporter;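 note: activators raise reporter mRNA above DMSO so AC50 marks induction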
How it was run: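 Readout is reporter mRNA induction, quantified by fluorescent primer extension and capillary electrophoresis after RT-PCR. Cells were HepG2 transiently carrying chimeric NR-Gal4 constructs with GAL4-UAS reporters, treated for 24 h; activity scored upward from DMSO.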

The chains behind the UniProt entries cited, without tags or fusion partners. Where a name states a change or a piece, a line headed by the entry shows the natural chain unless it says otherwise.
UniProt Q14994, whole entry: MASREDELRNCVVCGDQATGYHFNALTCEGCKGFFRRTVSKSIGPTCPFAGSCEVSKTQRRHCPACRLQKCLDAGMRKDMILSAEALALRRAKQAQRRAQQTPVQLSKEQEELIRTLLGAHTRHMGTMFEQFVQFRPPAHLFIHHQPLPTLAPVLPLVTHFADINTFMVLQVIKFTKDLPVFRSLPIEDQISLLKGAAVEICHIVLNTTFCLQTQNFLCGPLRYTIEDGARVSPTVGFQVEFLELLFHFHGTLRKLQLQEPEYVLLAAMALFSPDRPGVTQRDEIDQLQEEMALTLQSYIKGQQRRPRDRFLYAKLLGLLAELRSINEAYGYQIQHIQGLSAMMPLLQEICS
UniProt P11474, whole entry: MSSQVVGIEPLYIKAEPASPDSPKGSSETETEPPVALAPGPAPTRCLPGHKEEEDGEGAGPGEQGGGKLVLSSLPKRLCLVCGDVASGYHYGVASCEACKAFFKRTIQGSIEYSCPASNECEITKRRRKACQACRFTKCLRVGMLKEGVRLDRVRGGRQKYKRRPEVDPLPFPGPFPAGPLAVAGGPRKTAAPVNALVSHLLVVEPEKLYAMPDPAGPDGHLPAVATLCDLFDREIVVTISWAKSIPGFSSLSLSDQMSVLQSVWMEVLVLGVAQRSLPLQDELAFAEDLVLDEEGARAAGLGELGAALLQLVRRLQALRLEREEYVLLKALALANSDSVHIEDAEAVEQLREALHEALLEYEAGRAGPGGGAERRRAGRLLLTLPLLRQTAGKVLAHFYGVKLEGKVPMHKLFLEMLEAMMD
UniProt Q96RI1, whole entry: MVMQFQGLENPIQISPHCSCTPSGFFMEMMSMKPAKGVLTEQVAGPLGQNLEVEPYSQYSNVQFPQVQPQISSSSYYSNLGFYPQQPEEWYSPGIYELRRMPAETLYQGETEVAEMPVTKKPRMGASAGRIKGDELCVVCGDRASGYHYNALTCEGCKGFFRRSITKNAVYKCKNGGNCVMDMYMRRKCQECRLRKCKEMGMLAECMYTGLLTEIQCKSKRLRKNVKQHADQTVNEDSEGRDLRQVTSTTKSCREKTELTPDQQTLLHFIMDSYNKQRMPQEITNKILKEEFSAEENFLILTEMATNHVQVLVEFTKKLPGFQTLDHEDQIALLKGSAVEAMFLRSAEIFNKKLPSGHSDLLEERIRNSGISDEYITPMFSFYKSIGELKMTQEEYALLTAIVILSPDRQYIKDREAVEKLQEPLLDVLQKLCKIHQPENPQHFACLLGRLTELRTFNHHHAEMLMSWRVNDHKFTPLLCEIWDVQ
UniProt P55055, whole entry: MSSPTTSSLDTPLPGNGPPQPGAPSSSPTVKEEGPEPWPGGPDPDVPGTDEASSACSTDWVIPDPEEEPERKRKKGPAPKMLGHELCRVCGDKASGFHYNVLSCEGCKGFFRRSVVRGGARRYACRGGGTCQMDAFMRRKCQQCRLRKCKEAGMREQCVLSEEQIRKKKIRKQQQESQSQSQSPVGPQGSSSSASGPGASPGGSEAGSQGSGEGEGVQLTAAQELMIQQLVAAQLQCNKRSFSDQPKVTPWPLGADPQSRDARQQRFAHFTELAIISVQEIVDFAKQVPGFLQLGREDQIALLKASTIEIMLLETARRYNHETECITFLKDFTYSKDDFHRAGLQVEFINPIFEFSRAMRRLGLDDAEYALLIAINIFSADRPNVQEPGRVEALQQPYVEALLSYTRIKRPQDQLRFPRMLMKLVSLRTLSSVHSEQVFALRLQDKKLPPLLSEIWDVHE
UniProt P43354, whole entry: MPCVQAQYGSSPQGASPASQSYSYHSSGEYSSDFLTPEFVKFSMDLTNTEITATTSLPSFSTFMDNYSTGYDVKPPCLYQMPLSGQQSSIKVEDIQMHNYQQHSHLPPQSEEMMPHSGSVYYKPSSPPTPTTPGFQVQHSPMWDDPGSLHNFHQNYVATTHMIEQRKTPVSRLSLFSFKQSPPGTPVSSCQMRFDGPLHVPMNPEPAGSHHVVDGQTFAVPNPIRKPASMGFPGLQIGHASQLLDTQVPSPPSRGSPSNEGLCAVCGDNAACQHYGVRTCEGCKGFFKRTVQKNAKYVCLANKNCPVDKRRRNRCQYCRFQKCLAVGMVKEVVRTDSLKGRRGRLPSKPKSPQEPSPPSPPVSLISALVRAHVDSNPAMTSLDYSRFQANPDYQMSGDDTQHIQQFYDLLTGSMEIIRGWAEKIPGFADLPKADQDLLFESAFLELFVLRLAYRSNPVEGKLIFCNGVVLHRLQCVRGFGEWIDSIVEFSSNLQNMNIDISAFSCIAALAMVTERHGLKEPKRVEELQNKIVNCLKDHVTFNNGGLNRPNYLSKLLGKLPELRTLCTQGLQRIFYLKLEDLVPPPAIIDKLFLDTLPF
UniProt Q07869, whole entry: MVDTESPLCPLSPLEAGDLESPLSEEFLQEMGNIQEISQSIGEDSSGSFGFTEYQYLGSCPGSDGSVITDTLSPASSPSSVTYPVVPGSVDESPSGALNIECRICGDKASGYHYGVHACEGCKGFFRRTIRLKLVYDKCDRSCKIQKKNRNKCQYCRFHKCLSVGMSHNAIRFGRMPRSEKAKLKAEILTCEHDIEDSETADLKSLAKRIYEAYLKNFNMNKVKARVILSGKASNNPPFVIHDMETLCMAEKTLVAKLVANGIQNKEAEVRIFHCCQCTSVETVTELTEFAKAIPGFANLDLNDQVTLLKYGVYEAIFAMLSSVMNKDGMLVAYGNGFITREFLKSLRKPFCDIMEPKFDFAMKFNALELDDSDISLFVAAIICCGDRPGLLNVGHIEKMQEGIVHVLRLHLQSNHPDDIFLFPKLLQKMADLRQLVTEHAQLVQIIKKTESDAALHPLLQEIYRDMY
UniProt O75469, whole entry: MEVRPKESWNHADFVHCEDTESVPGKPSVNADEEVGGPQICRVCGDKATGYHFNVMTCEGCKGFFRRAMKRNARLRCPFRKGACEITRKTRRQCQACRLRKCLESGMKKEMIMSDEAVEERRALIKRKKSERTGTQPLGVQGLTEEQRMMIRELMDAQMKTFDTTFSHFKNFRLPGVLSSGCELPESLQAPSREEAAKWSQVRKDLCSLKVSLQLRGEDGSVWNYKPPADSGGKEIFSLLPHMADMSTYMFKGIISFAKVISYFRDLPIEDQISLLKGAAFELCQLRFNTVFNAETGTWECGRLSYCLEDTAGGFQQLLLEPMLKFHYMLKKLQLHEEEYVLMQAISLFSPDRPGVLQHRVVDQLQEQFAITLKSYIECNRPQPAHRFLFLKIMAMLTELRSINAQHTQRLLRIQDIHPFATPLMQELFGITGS
UniProt P19793, whole entry: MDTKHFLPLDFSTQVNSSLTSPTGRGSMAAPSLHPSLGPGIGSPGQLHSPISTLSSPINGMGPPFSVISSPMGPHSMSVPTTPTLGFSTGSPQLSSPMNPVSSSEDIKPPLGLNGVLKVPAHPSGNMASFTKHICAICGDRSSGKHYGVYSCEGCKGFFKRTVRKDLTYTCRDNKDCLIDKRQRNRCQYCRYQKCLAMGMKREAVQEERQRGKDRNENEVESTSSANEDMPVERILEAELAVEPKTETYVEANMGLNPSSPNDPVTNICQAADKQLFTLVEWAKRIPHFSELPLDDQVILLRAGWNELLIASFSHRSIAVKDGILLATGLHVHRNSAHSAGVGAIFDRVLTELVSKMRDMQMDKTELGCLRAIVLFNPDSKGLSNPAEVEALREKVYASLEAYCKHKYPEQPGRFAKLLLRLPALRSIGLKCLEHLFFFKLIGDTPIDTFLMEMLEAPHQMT
UniProt P28702, whole entry: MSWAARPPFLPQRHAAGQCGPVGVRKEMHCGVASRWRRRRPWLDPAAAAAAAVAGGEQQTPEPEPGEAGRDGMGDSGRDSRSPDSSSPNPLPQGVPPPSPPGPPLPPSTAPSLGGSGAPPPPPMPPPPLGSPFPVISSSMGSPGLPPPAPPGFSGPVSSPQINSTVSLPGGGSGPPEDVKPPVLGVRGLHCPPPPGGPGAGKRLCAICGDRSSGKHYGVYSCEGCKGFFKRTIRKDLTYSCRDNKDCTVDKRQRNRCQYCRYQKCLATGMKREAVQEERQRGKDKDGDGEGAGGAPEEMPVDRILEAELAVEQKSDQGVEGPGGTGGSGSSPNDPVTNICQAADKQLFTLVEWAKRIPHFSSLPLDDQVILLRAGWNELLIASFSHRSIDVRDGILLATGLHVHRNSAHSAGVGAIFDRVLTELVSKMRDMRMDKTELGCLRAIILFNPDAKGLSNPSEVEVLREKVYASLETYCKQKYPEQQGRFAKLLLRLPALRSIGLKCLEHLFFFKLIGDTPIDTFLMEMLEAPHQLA
UniProt P60484, whole entry: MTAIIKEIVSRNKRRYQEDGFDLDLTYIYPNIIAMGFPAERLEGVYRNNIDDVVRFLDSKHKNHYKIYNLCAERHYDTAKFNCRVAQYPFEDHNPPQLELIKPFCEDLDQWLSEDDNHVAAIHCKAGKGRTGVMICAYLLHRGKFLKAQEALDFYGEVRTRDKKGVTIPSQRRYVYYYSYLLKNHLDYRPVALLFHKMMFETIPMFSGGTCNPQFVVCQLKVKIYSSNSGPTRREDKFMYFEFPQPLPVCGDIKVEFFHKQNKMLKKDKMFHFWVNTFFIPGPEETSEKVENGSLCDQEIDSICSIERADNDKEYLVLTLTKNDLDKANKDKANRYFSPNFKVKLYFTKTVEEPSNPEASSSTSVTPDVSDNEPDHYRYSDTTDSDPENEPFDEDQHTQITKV
UniProt P23975, whole entry: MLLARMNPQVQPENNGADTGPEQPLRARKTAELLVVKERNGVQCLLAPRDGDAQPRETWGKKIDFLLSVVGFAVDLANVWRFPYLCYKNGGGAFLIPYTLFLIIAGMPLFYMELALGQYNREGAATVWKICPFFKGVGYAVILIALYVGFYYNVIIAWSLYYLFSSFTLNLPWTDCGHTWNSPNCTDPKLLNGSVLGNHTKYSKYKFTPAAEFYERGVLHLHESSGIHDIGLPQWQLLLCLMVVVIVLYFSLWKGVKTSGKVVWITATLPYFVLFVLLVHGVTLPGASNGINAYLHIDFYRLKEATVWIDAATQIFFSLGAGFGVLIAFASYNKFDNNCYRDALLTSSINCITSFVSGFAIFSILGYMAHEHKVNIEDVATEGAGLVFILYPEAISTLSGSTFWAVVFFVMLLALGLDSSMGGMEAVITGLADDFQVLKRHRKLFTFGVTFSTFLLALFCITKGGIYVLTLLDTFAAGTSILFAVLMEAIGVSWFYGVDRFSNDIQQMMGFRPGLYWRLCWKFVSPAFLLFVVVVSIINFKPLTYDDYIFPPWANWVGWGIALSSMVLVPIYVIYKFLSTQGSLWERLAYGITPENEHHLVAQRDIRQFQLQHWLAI
UniProt P41235, whole entry: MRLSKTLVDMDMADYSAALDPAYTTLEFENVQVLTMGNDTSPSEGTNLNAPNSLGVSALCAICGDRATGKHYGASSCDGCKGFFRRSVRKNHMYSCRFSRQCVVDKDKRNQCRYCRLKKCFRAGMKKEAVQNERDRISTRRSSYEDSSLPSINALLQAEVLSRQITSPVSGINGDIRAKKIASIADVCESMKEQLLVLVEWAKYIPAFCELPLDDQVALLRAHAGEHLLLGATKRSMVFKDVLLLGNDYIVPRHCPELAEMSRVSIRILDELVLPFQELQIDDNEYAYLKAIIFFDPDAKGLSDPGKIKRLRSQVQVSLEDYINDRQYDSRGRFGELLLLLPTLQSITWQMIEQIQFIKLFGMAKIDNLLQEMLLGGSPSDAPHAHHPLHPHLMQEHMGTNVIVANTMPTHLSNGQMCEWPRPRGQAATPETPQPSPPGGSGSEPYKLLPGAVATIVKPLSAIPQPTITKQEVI
UniProt P10827, whole entry: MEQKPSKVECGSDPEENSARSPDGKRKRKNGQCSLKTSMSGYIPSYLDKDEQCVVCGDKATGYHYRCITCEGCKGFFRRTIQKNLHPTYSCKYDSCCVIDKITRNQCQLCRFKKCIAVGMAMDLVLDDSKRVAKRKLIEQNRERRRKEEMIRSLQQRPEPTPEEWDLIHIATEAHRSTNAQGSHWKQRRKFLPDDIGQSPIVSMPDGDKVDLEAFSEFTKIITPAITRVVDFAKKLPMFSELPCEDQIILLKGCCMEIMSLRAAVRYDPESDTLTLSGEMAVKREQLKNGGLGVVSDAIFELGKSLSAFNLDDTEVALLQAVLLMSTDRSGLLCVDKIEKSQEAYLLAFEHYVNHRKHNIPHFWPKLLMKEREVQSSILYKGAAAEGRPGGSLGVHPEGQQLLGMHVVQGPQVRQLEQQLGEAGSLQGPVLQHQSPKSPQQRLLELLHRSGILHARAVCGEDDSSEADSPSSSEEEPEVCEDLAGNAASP

[2] = target: Steroid hormone receptor ERR1 (Homo sapiens) (UniProt P11474); experiment: ATG_ERRa_TRANS: Attagene TRANS-FACTORIAL HepG2 Assay for human Estrogen-Related Receptor alpha (ERRa) (AID 2282971); details: HepG2 Attagene TRANS reporter, ERRa transactivation
How it was run: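 HepG2 cells transiently transfected with multiplexed GAL4-UAS reporter units reading chimeric ERRa-Gal4 activity; 24 h compound exposure. Reporter mRNA measured by RT-PCR, 6-FAM labelling, HpaI digest and capillary electrophoresis; gain of signal fitted versus DMSO baseline.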

[3] = ATG_M_19_TRANS: Attagene TRANS-FACTORIAL HepG2 Assay for M19 Transcription Factor (Internal Marker) (AID 2282974); details: HepG2 Attagene TRANS-FACTORIAL M19 internal marker reporter
How it was run: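 Transfected HepG2 (GAL4-UAS MRTUs), 24 h compound, TriZol RNA, DNase-treated RT, reporter PCR, FAM label, HpaI digest, CE fluorescence; gain vs DMSO.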

[4] = ATG_GAL4_TRANS: Attagene TRANS-FACTORIAL HepG2 Assay for GAL4 (Internal Marker) (AID 2282976); details: HepG2 Attagene TRANS GAL4 internal marker reporter
How it was run: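 HepG2 cells transiently transfected with multiplexed GAL4-UAS reporter constructs were dosed for 24 h. Reporter mRNA was measured by RT-PCR, 6-FAM primer extension, HpaI digestion and capillary electrophoresis, and gain of signal was fitted relative to DMSO.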

[5] = target: Estrogen-related receptor gamma (Homo sapiens) (UniProt P62508); experiment: ATG_ERRg_TRANS: Attagene TRANS-FACTORIAL HepG2 Assay for human Estrogen-Related Receptor gamma (ERRg) (AID 2282977); details: HepG2 Attagene TRANS reporter, ERRg transactivation;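 note: hits increase reporter signal over DMSO so potencies reflect activators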
How it was run: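 Transient HepG2 transfectants, 24 h compound exposure, GAL4-UAS reporter mRNA by RT-PCR/6-FAM labelling/capillary electrophoresis; positive direction vs DMSO.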

[6] = target: Bile acid receptor (Homo sapiens) (UniProt Q96RI1); experiment: ATG_FXR_TRANS: Attagene TRANS-FACTORIAL HepG2 Assay for Farnesoid X Receptor (FXR) (AID 2282979); details: HepG2 Attagene TRANS FXR-GAL4 reporter transcription;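 note: hits raise reporter mRNA above DMSO so AC50 marks FXR activation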
How it was run: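 HepG2 cells transiently transfected with reporter constructs in which a chimeric FXR-GAL4 protein drives a GAL4-UAS reporter; 24 h compound exposure. Reporter mRNA measured by RT-PCR, FAM labelling, HpaI digestion and capillary electrophoresis; gain-of-signal versus DMSO.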

[7] = target: Oxysterols receptor LXR-beta (Homo sapiens) (UniProt P55055); experiment: ATG_LXRb_TRANS: Attagene TRANS-FACTORIAL HepG2 Assay for human Liver X Receptor beta (LXRb) (AID 2282981); details: HepG2 Attagene TRANS GAL4-LXRb reporter, mRNA
How it was run: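 Cells: HepG2, transiently transfected with GAL4-UAS reporter units plus LXRb-Gal4 fusion. Treatment: 24 h. Detection: reporter mRNA by RT-PCR, 6-FAM labelling, HpaI digestion, capillary electrophoresis.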

[8] = target: Nuclear receptor subfamily 4 group A member 2 (Homo sapiens) (UniProt P43354); experiment: ATG_NURR1_TRANS: Attagene TRANS-FACTORIAL HepG2 Assay for human Nuclear Receptor Related Protein 1 (NURR1) (AID 2282985); details: HepG2 Attagene TRANS reporter, mRNA readout
How it was run: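 Cells: HepG2, transiently transfected. Exposure: 24 h. Detection: fluorescence of labelled RT-PCR products separated by capillary electrophoresis; upward fit versus DMSO.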

[9] = target: human Peroxisome Proliferator-activated Receptor alpha (PPARa), PPARA (gene 5465) (UniProt Q07869); experiment: ATG_PPARa_TRANS: Attagene TRANS-FACTORIAL HepG2 Assay for human Peroxisome Proliferator-activated Receptor alpha (PPARa) (AID 2283001)
How it was run: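 Reporter transcripts from GAL4-UAS units in transfected HepG2 were quantified 24 h after dosing. Detection used reverse transcription, PCR, fluorescent primer extension and capillary electrophoresis, with DMSO as baseline.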

[10] = target: Nuclear receptor subfamily 1 group I member 2 (Homo sapiens) (UniProt O75469); experiment: ATG_PXR_TRANS: Attagene TRANS-FACTORIAL HepG2 Assay for human Pregnane X Receptor (PXR) (AID 2283008)
How it was run: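 HepG2 cells transiently transfected with GAL4-UAS reporter units and PXR-Gal4 chimera, exposed 24 h. Reporter mRNA quantified by RT-PCR, fluorescent labelling, HpaI digestion and capillary electrophoresis; gain of signal vs DMSO.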

[11] = target: Retinoic acid receptor RXR-alpha (Homo sapiens) (UniProt P19793); experiment: ATG_RXRa_TRANS: Attagene TRANS-FACTORIAL HepG2 Assay for human Retinoid X Receptor alpha (RXRa) (AID 2283012)
How it was run: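 Cells (HepG2) carried transiently transfected GAL4-responsive reporter units. Following a 24 h chemical incubation, reporter mRNA induction was read via RT-PCR fragment analysis; DMSO served as negative control and baseline.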

[12] = target: human Retinoid X Receptor beta (RXRb), RXRB (gene 6257) (UniProt P28702); experiment: ATG_RXRb_TRANS: Attagene TRANS-FACTORIAL HepG2 Assay for human Retinoid X Receptor beta (RXRb) (AID 2283013)
How it was run: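 Multiplexed TRANS reporter assay in HepG2; 24 h dosing; reporter mRNA by RT-PCR/CE fluorescence; gain-of-signal relative to DMSO.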

[13] = target: human Phosphatase and Tensin Homolog (PTEN), PTEN (gene 5728) (UniProt P60484); experiment: NVS_ENZ_hPTEN: NovaScreen (NVS) Enzymatic Assay for human Phosphatase and Tensin Homolog (PTEN) (AID 2283203)
How it was run: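 Cell-free recombinant human PTEN with fluorescent substrate; product separated by electrophoretic mobility shift and read by fluorescence 1 h after dosing. Primary screen in duplicate at 25 uM, actives followed in concentration series versus DMSO.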

[14] = target: human Norepinephrine Transporter (NET), SLC6A2 (gene 6530) (UniProt P23975); experiment: NVS_TR_hNET: NovaScreen (NVS) Transporter Assay for human Norepinephrine Transporter (NET) (AID 2283377);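 note: cell-free membrane protein extracted from CHO cells expressing human NET; displacement of radioligand from human NET seen as loss of scintillation signal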
How it was run: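 Scintillation counts of filter-retained radioligand served as the readout, taken 1 h post-dosing in a cell-free CHO-derived system. Test chemicals ran first at 25 uM in duplicate; confirmed hits were retested across concentrations.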

[15] = ACEA_ER_80hr: ACEA Biosciences xCELLigence Real-Time Cell Analysis on Estrogen Receptor Agonism for Proliferation (AID 2282667); details: T47D proliferation, impedance (xCELLigence), 80 h
How it was run: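 T47D human breast cells were seeded on electrode plates, monitored overnight, then exposed continuously to compounds in eight-point 1:4 dilutions from 100 uM (max 0.5% DMSO). Impedance-based growth was read at 80 h, fitted upward relative to DMSO.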

[16] = target: Hepatocyte nuclear factor 4-alpha (Homo sapiens) (UniProt P41235); experiment: ATG_HNF4a_TRANS: Attagene TRANS-FACTORIAL HepG2 Assay for human Hepatocyte Nuclear Factor 4 alpha (HNF4a) (AID 2282982); details: HepG2 HNF4a transactivation reporter, mRNA readout
How it was run: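 Transfected HepG2 reporter cells are dosed for 24 h; reporter RNA is reverse-transcribed, amplified, fluorescently labelled and HpaI-digested before CE sizing. Positive-direction fit against DMSO.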

[17] = target: human Peroxisome Proliferator-activated Receptor delta (PPARd), PPARD (gene 5467) (UniProt Q03181); experiment: ATG_PPARd_TRANS: Attagene TRANS-FACTORIAL HepG2 Assay for human Peroxisome Proliferator-activated Receptor delta (PPARd) (AID 2283002)
How it was run: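 Read-out is induced reporter mRNA, quantified by RT-PCR with fluorescent labelling and capillary electrophoresis after 24 h dosing. Cells are HepG2 transiently carrying multiple GAL4-UAS reporter units driven by exogenous NR-GAL4 chimeras; DMSO serves as baseline.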

[18] = target: Peroxisome proliferator-activated receptor gamma (Homo sapiens) (UniProt P37231); experiment: ATG_PPARg_TRANS: Attagene TRANS-FACTORIAL HepG2 Assay for human Peroxisome Proliferator-activated Receptor-gamma (PPARg) (AID 2283007)
How it was run: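 Twenty-four hours after chemical dosing of transiently transfected HepG2 cells, isolated RNA was converted to cDNA, reporter sequences amplified and 6-FAM-labelled, then HpaI-digested and analysed by capillary electrophoresis. Signal increase against DMSO was fitted.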

[19] = target: human Thyroid Receptor alpha (THRa1), THRA (gene 7067) (UniProt P10827); experiment: ATG_THRa1_TRANS: Attagene TRANS-FACTORIAL HepG2 Assay for human Thyroid Receptor alpha (THRa1) (AID 2283014)
How it was run: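 HepG2 cells transiently transfected with multiplexed GAL4-UAS reporter units for exogenous chimeric THRa1-Gal4; reporter mRNA measured 24 h after dosing by RT-PCR, 6-FAM labelling, HpaI digestion and capillary electrophoresis. Gain-of-signal fitted versus DMSO baseline.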

Measured: AC50

ClCCNCCCl
inconclusive: [1] | [2] | [3] | [4] | [5] | [6] | [7] | [8] | [9] | [10] | [11] | [12] | [13] 25 µM | [14] 17.5 µM

CCOP(=O)(Cl)Cl
inconclusive: [15] 0.22 µM | [1] 5.65 µM | [2] | [3] | [4] 0.0823 µM | [5] | [6] 61.4 µM | [16] | [8] | [17] | [18] | [10] 1.26 µM | [11] 23.3 µM | [12] | [19] 5.4 µM

Source: PubChem BioAssay (EPA / NIEHS)
